Data as given in publication PMC5704011.
These are yes or no findings as the source states them, for the method shown.

The chains behind the UniProt entries cited, without tags or fusion partners. Where a name states a change or a piece, a line headed by the entry shows the natural chain unless it says otherwise. Residues count along the entry.
UniProt P17948, residues 27-758: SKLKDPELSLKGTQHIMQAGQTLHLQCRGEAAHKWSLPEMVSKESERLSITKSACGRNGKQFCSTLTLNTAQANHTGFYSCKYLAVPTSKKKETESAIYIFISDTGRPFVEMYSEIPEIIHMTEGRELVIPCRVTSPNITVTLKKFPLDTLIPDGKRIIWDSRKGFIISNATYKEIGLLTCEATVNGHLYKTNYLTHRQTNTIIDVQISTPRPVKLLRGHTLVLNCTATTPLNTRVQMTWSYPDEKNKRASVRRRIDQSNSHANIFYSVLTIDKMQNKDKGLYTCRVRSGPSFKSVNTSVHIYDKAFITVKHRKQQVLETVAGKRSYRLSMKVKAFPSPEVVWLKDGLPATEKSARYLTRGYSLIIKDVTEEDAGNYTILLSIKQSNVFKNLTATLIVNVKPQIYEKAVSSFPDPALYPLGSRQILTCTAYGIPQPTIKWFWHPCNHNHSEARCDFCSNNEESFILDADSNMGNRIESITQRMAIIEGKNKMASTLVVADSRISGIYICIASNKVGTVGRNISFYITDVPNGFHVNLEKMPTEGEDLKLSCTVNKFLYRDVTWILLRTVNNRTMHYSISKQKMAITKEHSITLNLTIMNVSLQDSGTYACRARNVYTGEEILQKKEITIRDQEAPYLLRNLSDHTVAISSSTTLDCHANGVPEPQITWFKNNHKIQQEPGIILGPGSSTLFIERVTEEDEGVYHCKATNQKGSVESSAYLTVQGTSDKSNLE
UniProt P35916, residues 25-775: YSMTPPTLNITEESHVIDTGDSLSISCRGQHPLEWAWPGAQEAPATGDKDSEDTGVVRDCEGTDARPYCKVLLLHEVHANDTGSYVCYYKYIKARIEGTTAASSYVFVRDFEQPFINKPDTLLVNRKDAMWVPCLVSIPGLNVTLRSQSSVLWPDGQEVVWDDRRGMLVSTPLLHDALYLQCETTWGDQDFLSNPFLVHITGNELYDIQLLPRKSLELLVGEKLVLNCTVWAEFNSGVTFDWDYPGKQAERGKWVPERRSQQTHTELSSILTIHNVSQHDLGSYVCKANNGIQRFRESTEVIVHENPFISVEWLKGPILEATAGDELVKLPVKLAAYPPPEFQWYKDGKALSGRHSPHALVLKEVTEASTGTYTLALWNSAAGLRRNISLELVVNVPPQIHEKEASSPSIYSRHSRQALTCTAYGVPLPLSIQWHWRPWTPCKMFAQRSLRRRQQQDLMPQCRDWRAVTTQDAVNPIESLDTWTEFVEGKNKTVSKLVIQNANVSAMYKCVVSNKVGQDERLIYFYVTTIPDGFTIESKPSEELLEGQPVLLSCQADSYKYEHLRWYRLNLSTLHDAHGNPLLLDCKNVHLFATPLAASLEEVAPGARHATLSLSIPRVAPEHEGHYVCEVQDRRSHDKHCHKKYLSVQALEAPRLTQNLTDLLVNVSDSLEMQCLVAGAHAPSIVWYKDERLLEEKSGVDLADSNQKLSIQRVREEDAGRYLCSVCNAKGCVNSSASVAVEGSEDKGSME
UniProt Q9NRA1: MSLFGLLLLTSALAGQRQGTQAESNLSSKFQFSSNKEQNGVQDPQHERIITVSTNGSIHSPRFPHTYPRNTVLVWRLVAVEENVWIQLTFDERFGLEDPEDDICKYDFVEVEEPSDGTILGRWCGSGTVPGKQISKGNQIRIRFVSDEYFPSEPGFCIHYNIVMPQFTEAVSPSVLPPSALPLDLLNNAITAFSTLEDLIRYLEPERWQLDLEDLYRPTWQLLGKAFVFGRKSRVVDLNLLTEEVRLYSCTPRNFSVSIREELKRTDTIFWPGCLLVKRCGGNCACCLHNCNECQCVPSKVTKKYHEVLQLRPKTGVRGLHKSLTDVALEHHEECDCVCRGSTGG

Assays:
VEGFR1 (Homo sapiens) = VEGFR1 (Homo sapiens) (UniProt P17948); assay: SPR; BIAcore 3000, 25 °C, CM5 chip; receptor immobilised by amine coupling (~200-500 R.U.); ligand injected at 40, 20 and 10 nM in HBS-EP pH 7.4 (10 mM HEPES, 3 mM EDTA, 150 mM NaCl, 0.005% TWEEN-20); angiopoietin-4 reference cell subtracted; global 1:1 Langmuir fit; χ^2-to-Rmax < 1.0 taken as a true interaction; both purified
[1] = molecular target: human recombinant VEGFR3 (human) (UniProt P35916); assay: as above

In the case of “human recombinant PDGF-CC (from UniProt Q9NRA1) (ligand)”, the binding (VEGFR1 (Homo sapiens)) is reported as “no binding (tested: 40 nM)” and the binding [1] is reported as “no binding (tested: 40 nM)”.
